Data taken from paper PMC12670160, “A drug-repurposing screen of FDA- and EMA-approved drugs identifies two NF-κB inhibitors active against eumycetoma” (Journal of Antimicrobial Chemotherapy, 2025).
Structures can show the parent of a compound that is named as a salt. In all, about 5,300 compounds went through this assay and about 130 (2.5%) showed an effect of 50% or more. Some of the results follow. Square brackets hold non-standard residues; d marks the D form. Peptide text beside a SMILES is read from it. NMeF = CN[C@@H](Cc1ccccc1)C(=O)O

Each compound was assayed on M. mycetomatis strain mm55. Settings: primary screen, metabolic activity vs growth control; 96 h, 2 µM; inhibitor.

| SMILES | % viability [%] |
| --- | --- |
| CN1CCN(c2ncc(-c3cc(Cl)cc(Cl)c3Cl)c(N)n2)CC1 [ONC0002609, sipatrigine] | 101.5 |
| C1COC(NC(C2CC2)C2CC2)=N1 [ONC0003047, rilmenidine] | 64.77 |
| Cn1c(=O)[nH]c2ncn(C)c2c1=O [ONC0002010, paraxanthine] | 115.5 |
| C#CCN[C@@H]1CCc2ccccc21 [ONC0004669, rasagiline mesylate] | 159.9 |
| COc1cc2ncn(-c3cc(OCc4ccccc4C(F)(F)F)c(C(N)=O)s3)c2cc1OC [ONC0000159, gw843682x] | 75.74 |
| OC[C@H]1O[C@@H](n2cnc3c(NC4CCCC4)ncnc32)[C@H](O)[C@@H]1O [ONC0001585, n6cyclopentyladenosine] | 72.4 |
| CCOc1nc2cccc(C(=O)OCc3oc(=O)oc3C)c2n1Cc1ccc(-c2ccccc2-c2noc(=O)[nH]2)cc1 [ONC0002404, azilsartan medoxomil] | 105.9 |
| CC(C)Oc1ccc(-c2nc(-c3cccc4c3CCC4NCCC(=O)O)no2)cc1C#N (centres unmarked) [ONC0002706, rp001] | 77.26 |
| CC1(C)CCC(C)(C)c2cc(C3(c4ccc(C(=O)O)cc4)OCCO3)ccc21 [ONC0000169, bms649] | 80.1 |
| CCCn1c(=O)[nH]c(=O)c2[nH]cnc21 [ONC0001998, 3npropylxanthine] | 100.8 |
| COC(=O)Nc1nc2ccc(Sc3ccccc3)cc2[nH]1 [ONC0000641, fenbendazole] | 109.2 |
| CCOc1cccc(NC(=O)c2ccc(N3CCCC3)c(C(F)(F)F)c2)c1 [ONC0001854, epptb] | 85.67 |
| c1ccc2sc(SN3CCOCC3)nc2c1 [ONC0003734, noxydiethylenebenzothiazole2sulfenamide] | 115.2 |
| CC(=O)[C@@]1(O)CC[C@H]2[C@@H]3C[C@H](C)C4=CC(=O)C=C[C@]4(C)[C@@]3(F)[C@@H](O)C[C@@]21C [ONC0000532, fluorometholone] | 74.24 |
| CCc1nc(N)nc(N)c1-c1ccc(Cl)cc1 [ONC0003378, pyrimethamine] | 66.85 |
| C1CCC(C(CC2CCCCN2)C2CCCCC2)CC1 (centres unmarked) [ONC0002896, perhexiline maleate] | 98.87 |
| CCN(C(=O)c1c(O)c2c(Cl)cccc2n(C)c1=O)c1ccccc1 [ONC0005087, laquinimod abr215062] | 73.14 |
| NC1CCN(c2cccc(Cl)n2)CC1 [ONC0000810, sr57227a] | 65.46 |
| Cc1cccc(-c2[nH]c(C(C)(C)C)nc2-c2ccc3c(c2)OCO3)n1 [ONC0005219, sb505124] | 129 |
| CC(NC(=O)c1ccccc1/N=C/c1c(O)ccc2ccccc12)c1ccccc1 (centres unmarked) [ONC0000958, sirtinol] | 77.53 |
| CC(C)(O)C(=O)Nc1ccc([N+](=O)[O-])c(C(F)(F)F)c1 [ONC0003818, 2hydroxyflutamide] | 68.04 |

| SMILES | % viability [%] |
| --- | --- |
| CCOc1ccccc1C(=O)O [ONC0004472, 2ethoxybenzoicacid] | 80.97 |
| NC(Cc1c[nH]c2ccc(O)cc12)C(=O)O (centres unmarked) [ONC0004746, 5hydroxytryptophan 5htp] | 110.5 |
| Cc1ccc2c(c1)C1CN(C)CCC1N2 (centres unmarked) [ONC0003732, stobadine] | 111.5 |
| CC(C)CC(=O)Nc1[nH]nc2c1CN(C(=O)C1CCN(C)CC1)C2(C)C [ONC0004869, pha793887] | 94.75 |
| COc1cc(C(=O)NCc2ccc(OCCN(C)C)cc2)cc(OC)c1OC [ONC0000535, trimethobenzamide hydrochloride] | 87.2 |
| CCCN1CCCC[C@H]1C(=O)Nc1c(C)cccc1C [ONC0004565, ropivacaine hcl] | 78.48 |
| NCCCCCC(O)(P(=O)(O)O)P(=O)(O)O [ONC0002151, neridronate sodium salt] | 89.33 |
| Nc1n[n+]([O-])c2ccccc2[n+]1[O-] [ONC0001131, tirapazamine] | 75.1 |
| c1cnc(N2CCN(Cc3ccc4c(c3)OCO4)CC2)nc1 [ONC0000947, piribedil] | 72.64 |
| C[C@@H](Nc1cc(F)cc(F)c1)c1cc(C(=O)N(C)C)cc2c(=O)cc(N3CCOCC3)oc12 [ONC0004558, azd8186] | 76.07 |
| C[C@](N)(Cc1ccc(O)c(O)c1)C(=O)O [ONC0000384, methyldopa] | 65.99 |
| COC(=O)/C=C/c1cccc(N(Cc2ccc(-c3ccc(N(C)C)cc3)cc2)C(=O)C2CCCCC2)c1 [ONC0003149, fexaramine] | 78.38 |
| CCCC1C(=O)N2C(N(C)C)=Nc3ccc(C)cc3N2C1=O (centres unmarked) [ONC0002278, azapropazone] | 76.7 |
| COc1cc(N2CCC(O)CC2)ccc1Nc1cc(Nc2ccccc2S(=O)(=O)C(C)C)c2cc[nH]c2n1 [ONC0001327, mps1in1] | 116.6 |
| COc1cc(C(=O)N2CCC(N3CCN(C)CC3)CC2)ccc1Nc1ncc2c(n1)N(C)c1ccccc1C(=O)N2C [ONC0000864, lrrk2in1] | 80.6 |
| Clc1ccc(C(Cn2ccnc2)OCc2ccsc2Cl)c(Cl)c1 (centres unmarked) [Tioconazole] | 3.335 |
| C[C@H]1c2cccc(O)c2C(=O)C2=C(O)[C@]3(O)C(=O)C(C(N)=O)=C(O)[C@@H](N(C)C)[C@@H]3[C@@H](O)[C@@H]21 [ONC0000927, doxycycline hyclate] | 70.17 |
| COc1cc(Br)c(S(=O)(=O)Nc2ccc(C(F)(F)F)c(O[C@@H]3CCN(C)C3)c2)cc1OC [ONC0000118, sb706375] | 88.32 |
| Cc1[nH]c2ccc(F)cc2c1-c1nc2c3cccnc3c3ncccc3c2[nH]1 [ONC0001815, apto253] | 95.12 |
| CSCC[C@H](NC(=O)[C@H](CC(C)C)NC(=O)[C@@H](Cc1c[nH]c2ccccc12)NC(=O)[C@H](Cc1ccccc1)N(C)C(=O)[C@@H](Cc1c[nH]c2ccccc12)NC(=O)[C@@H](N)CCCNC(=N)N)C(N)=O [ONC0003409, antagonistg] (H-R[dW][NMeF][dW]LM-NH2) | 66.36 |
| Cc1ccc(-c2cn3c4c(sc3n2)CCCC4)cc1 [ONC0002473, pifithrincyclic] | 114.3 |

| SMILES | % viability [%] |
| --- | --- |
| CCCC(=O)c1cc(F)ccc1OCC(O)CNC(C)(C)C (centres unmarked) [ONC0005408, butofilolol] | 80.64 |
| CS(=O)(=O)c1ccc(-c2cn3ccccc3n2)cc1 [ONC0002352, zolimidine] | 42.05 |
| CCCCCCCCCCCCOCCOCCOCCOCCOCCOCCOCCOCCOCCO [ONC0002139, polidocanol] | 78.72 |
| Cc1c(C(=O)NN2CCCCC2)nn(-c2ccc(Cl)cc2Cl)c1-c1ccc(Cl)cc1 [ONC0005115, rimonabant sr141716] | 138.4 |
| COc1nc2ccc(Br)cc2cc1[C@@H](c1ccccc1)[C@@](O)(CCN(C)C)c1cccc2ccccc12 [ONC0005571, bedaquiline] | 85.46 |
| CNc1cc2[nH]c(=O)n(-c3ccc(NC(=O)NS(=O)(=O)c4ccc(Cl)s4)cc3)c(=O)c2cc1F [ONC0000251, elinogrel] | 58.04 |
| CC(C)=CCC[C@](C)(O)[C@H]1CC[C@]2(C)[C@@H]1[C@H](O)C[C@@H]1[C@@]3(C)CC[C@H](O)C(C)(C)[C@@H]3CC[C@]12C [ONC0000922, 20sprotopanaxadiol] | 94.76 |
| COc1cc2c(Nc3ccc(Br)cc3F)ncnc2cc1OCC1CCN(C)CC1 [ONC0004515, vandetanib zd6474] | 76.73 |
| CCCCCCCCCCCCCC[C@@H](O)[C@@H](O)[C@@H](N)CO [ONC0003465, phytosphingosine] | 45.49 |
| CCOC(=O)COc1ccc2c(=O)cc(-c3ccccc3)oc2c1 [ONC0004225, efloxate] | 72.53 |
| Cc1ccc(NC(=O)c2ccc(CN3CCN(C)CC3)cc2)cc1Nc1nccc(-c2cccnc2)n1 [ONC0004927, imatinib mesylate sti571] | 86.58 |
| Cc1cc2nc3c(=O)[nH]c(=O)nc-3n(C)c2cc1C=O [ONC0004114, ro082750] | 103.6 |
| CC(C)C(=O)Oc1ccc(CO)cc1[C@H](CCN(C(C)C)C(C)C)c1ccccc1 [ONC0004986, fesoterodine fumarate] | 109.4 |
| CSc1cc2c(cc1C(F)(F)F)N(C(=O)Nc1cccnc1)CC2 [ONC0003013, sb221284] | 93.21 |
| N=C(N)c1ccc(N2CCN(C3CCN(CC(=O)O)CC3)CC2)cc1 [ONC0001428, gr144053] | 85.04 |
| Cc1oc(-c2ccccc2)nc1CCOc1ccc(CC2SC(=O)NC2=O)c2sccc12 (centres unmarked) [ONC0000030, edaglitazone] | 100.5 |
| CCc1cc2c(cc1N1CCC(N3CCOCC3)CC1)C(C)(C)c1[nH]c3cc(C#N)ccc3c1C2=O [ONC0004985, ch5424802] | 99.82 |
| CCc1c2c(nc3ccc(O)cc13)-c1cc3c(c(=O)n1C2)COC(=O)[C@]3(O)CC [ONC0003633, sn38] | 66 |
| Oc1noc2c1CCNC2 [ONC0001438, gaboxadol] | 55.34 |
| CCOC(=O)O[C@]1(C(=O)OCCl)CC[C@H]2[C@@H]3CCC4=CC(=O)C=C[C@]4(C)[C@H]3[C@@H](O)C[C@@]21C [ONC0004855, loteprednol etabonate] | 113.8 |

Five entries from above, ordered by formula weight, smallest number first:

| SMILES | % viability [%] |
| --- | --- |
| CSc1cc2c(cc1C(F)(F)F)N(C(=O)Nc1cccnc1)CC2 [ONC0003013, sb221284] | 93.21 |
| CC(NC(=O)c1ccccc1/N=C/c1c(O)ccc2ccccc12)c1ccccc1 (centres unmarked) [ONC0000958, sirtinol] | 77.53 |
| CCOC(=O)O[C@]1(C(=O)OCCl)CC[C@H]2[C@@H]3CCC4=CC(=O)C=C[C@]4(C)[C@H]3[C@@H](O)C[C@@]21C [ONC0004855, loteprednol etabonate] | 113.8 |
| COc1cc2ncn(-c3cc(OCc4ccccc4C(F)(F)F)c(C(N)=O)s3)c2cc1OC [ONC0000159, gw843682x] | 75.74 |
| COc1cc(C(=O)N2CCC(N3CCN(C)CC3)CC2)ccc1Nc1ncc2c(n1)N(C)c1ccccc1C(=O)N2C [ONC0000864, lrrk2in1] | 80.6 |
